Assay results published in paper PMC12010877.
The exact form of at least one protein or probe is not confirmed.

Test system: MBP-CsMYB77 (Camellia sinensis)
Test: EMSA
Details: 6% polyacrylamide gel, TBE running buffer, pH and temperature not stated, recombinant protein, protein details: MBP (pMAL-c6T)

GTTAAAATGGATAAGAATGTAACAGTTGACAAAAATAAAAAATTGAGCAT (double strand) [CsPOD44 promoter probe]
binding result: binds
